By UniProt entry, the sequences of proteins in these tests, tags left out.
UniProt Q0JBA9, entry or part of it: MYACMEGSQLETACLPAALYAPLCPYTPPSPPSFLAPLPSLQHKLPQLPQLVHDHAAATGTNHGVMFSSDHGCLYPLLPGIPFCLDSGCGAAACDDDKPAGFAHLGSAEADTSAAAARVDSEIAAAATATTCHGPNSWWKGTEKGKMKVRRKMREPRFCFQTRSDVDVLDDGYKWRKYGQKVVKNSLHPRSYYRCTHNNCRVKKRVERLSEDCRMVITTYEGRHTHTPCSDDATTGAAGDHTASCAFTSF

Some of the results follow.
The sequences below were run against OsWRKY34 (Oryza sativa, UniProt Q0JBA9 1-250) (assay: protein-binding microarray (RPBM); PBS, 2% BSA, 51.3 ng/ul salmon testes DNA, 50 uM zinc acetate, 200 nM TF, 25 C, 1 h; high values mean tight binding). Details: protein: recombinant; tags: N-terminal polyhistidine and DsRed monomer fusion (pET32a); label: CyDye5-dUTP incorporated in the synthesized complementary strand; 3' TTTTT single-stranded linker to array surface; dsDNA, one strand shown.
Outline: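 Binding signal is reported as fluorescence intensity per feature (arbitrary units) from an Axon 4000B scanner. Incubation used 200 nM of each Ni–NTA-purified, N-terminally polyhistidine- and DsRed-fused transcription factor from E. coli BL21-CodonPlus on a double-stranded custom Agilent array for 1 h at 25 °C, with 50 µM zinc acetate in the buffer, followed by washing.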
In the case of “GGTGTAGGTCTATTGTCGTCTCTTCTCAAGCGCATTGATCCGGAGTCACCTAGTGCAG”, the binding signal was 9600 fluorescence intensity (a.u.).
For “TATGTCTGATAATTCTCCATCCTAGTTTTATCCTTCTTTGCGGAGTCACCTAGTGCAG”, the binding signal was 8460 fluorescence intensity (a.u.).
With “CTCTCCCCTAGGCCCTCTGACGTAGCCAACTTGCGGAAGCCGGAGTCACCTAGTGCAG” the binding signal was 8380 fluorescence intensity (a.u.).
In the case of “AAAGTTATCATACAAAAATCCAATCCTTAATTATTCTCTTCGGAGTCACCTAGTGCAG”, the binding signal was 8330 fluorescence intensity (a.u.).
For “ACTAGCTACCAGCCTTCTACTACTAACACCCACCCGGCCGCGGAGTCACCTAGTGCAG”, the binding signal was 8200 fluorescence intensity (a.u.).
For “AAATTTAGGTGGAGGGGTGTGGGCGGTTTCGTGCAAAAATCGGAGTCACCTAGTGCAG”, the binding signal was 19100 fluorescence intensity (a.u.).
In the case of “GATCCTGTTCTTCGCATCCATCCATTGCCGCTGGTCGCACCGGAGTCACCTAGTGCAG”, the binding signal was 10900 fluorescence intensity (a.u.).
“TTTTGTATATTTATTTTTTAAAAACGTATCTTTAGCAGTTCGGAGTCACCTAGTGCAG” was tested, and the binding signal was 8660 fluorescence intensity (a.u.).
“TGTCATTTTCTATTTTAGTCCTCATATTTTGTAATTTTTACGGAGTCACCTAGTGCAG” was tested, and the binding signal was 9390 fluorescence intensity (a.u.).
In the case of “TGGTACACTGAAATTTTTTTCTTCTTGATCCCCTGGTCTTCGGAGTCACCTAGTGCAG”, the binding signal was 8840 fluorescence intensity (a.u.).
In the case of “TCACGCCGGTTCGTTTTCACTCCGTTTTCGGTTTCGATAACGGAGTCACCTAGTGCAG”, the binding signal was 8560 fluorescence intensity (a.u.).
In the case of “CTTCAACTTTCTCGTTTTCCGTCAGCACGCTTTCCAAACTCGGAGTCACCTAGTGCAG”, the binding signal was 9080 fluorescence intensity (a.u.).
With “CTACCAGTTATATCTTTTGCTATGCATAGGCATATCATGTCGGAGTCACCTAGTGCAG” the binding signal was 9620 fluorescence intensity (a.u.).
“CGTTCCTTGGTATTCTCCCTCGTGGTGTAAATGTACGTATCGGAGTCACCTAGTGCAG” was tested, and the binding signal was 9740 fluorescence intensity (a.u.).
With “ATCATTCACCCAAATCGTTTGGTTCGCTATCCTCGCGCTCCGGAGTCACCTAGTGCAG” the binding signal was 12100 fluorescence intensity (a.u.).
“TGGTGCATTTGCTGCAAATGCTGCTAGTTTTGTTGCTTTTCGGAGTCACCTAGTGCAG” was tested, and the binding signal was 8520 fluorescence intensity (a.u.).
With “GACTTGATTTTTTTTCTTAATTTGACCTTTTAATTTCAAACGGAGTCACCTAGTGCAG” the binding signal was 8080 fluorescence intensity (a.u.).
For “AACATTAACTGTTTTCTTTAGCAACTACTGATCGATACACCGGAGTCACCTAGTGCAG”, the binding signal was 8100 fluorescence intensity (a.u.).
For “GGGGTGGGGTGGAGAGGGTGAAGCGGCGACGGTGACGATGCGGAGTCACCTAGTGCAG”, the binding signal was 9870 fluorescence intensity (a.u.).
For “CTGCCCCACATCCCCGGGCCCACCTGCCAGTCCCCGCCACCGGAGTCACCTAGTGCAG”, the binding signal was 9930 fluorescence intensity (a.u.).
“TTCACTCAAATGACTTGCTTTTCGCGCTTCTGGATCAATCCGGAGTCACCTAGTGCAG” was tested, and the binding signal was 8800 fluorescence intensity (a.u.).
With “CGTTGACTCCATCTCTTTAACATATTTTAGGAGCATGCTTCGGAGTCACCTAGTGCAG” the binding signal was 8610 fluorescence intensity (a.u.).
“GGCGGATGTGGGGTGAGAAGCATCCGCGCAGCCGCGCGCGCGGAGTCACCTAGTGCAG” was tested, and the binding signal was 8720 fluorescence intensity (a.u.).
In the case of “GCTACATCTAGACAAGGGGAGGGCGGTGCATTGGAGACGACGGAGTCACCTAGTGCAG”, the binding signal was 10700 fluorescence intensity (a.u.).
In the case of “ATGAGTTTTCCTTTTTTTTAAAATCTTTTCTTGAAGGTTTCGGAGTCACCTAGTGCAG”, the binding signal was 9510 fluorescence intensity (a.u.).
“GCAACTGCACATGTGCTTATTTAGTTTCTGCATTGGTCAACGGAGTCACCTAGTGCAG” was tested, and the binding signal was 12200 fluorescence intensity (a.u.).
In the case of “GTAGCACCAGTTAATTTATCTATATATATGTGTGTTTTACCGGAGTCACCTAGTGCAG”, the binding signal was 10600 fluorescence intensity (a.u.).
In the case of “ATGCTTGCGAGTCGTCTACATATGCTTGGAATTTTTTTTCCGGAGTCACCTAGTGCAG”, the binding signal was 11900 fluorescence intensity (a.u.).
With “ACACCTGCGCTCGCATACAACGCTCGACTTCTCTTCTCTCCGGAGTCACCTAGTGCAG” the binding signal was 9800 fluorescence intensity (a.u.).
“CATCGAGCGTCCATCATGCGCTTATCATCGACAGTTTCTTCGGAGTCACCTAGTGCAG” was tested, and the binding signal was 8040 fluorescence intensity (a.u.).
In the case of “CGTCTCGCCGGAGCGTTGACGAGGACCTCTCTACTCTTCACGGAGTCACCTAGTGCAG”, the binding signal was 9020 fluorescence intensity (a.u.).
“TACATGGGAGTAGAGGCGGGCGGCGGCTGCGGTGGGAGGGCGGAGTCACCTAGTGCAG” was tested, and the binding signal was 10800 fluorescence intensity (a.u.).
For “CGCTCTACGGCTCACAACCATCGTCAACCAGCTTGCAACCCGGAGTCACCTAGTGCAG”, the binding signal was 9280 fluorescence intensity (a.u.).
With “ACTCAAAAGATTCGTCATTCGTCTCGCGATTTTCATGTAACGGAGTCACCTAGTGCAG” the binding signal was 10200 fluorescence intensity (a.u.).
“CCATTAGCGTATGTATTTTTTTCTGGTTCCTATGGGGATCCGGAGTCACCTAGTGCAG” was tested, and the binding signal was 8640 fluorescence intensity (a.u.).
“GACTTACCATCTGACCTTCCCTGGCCTGGCCCAGCTATACCGGAGTCACCTAGTGCAG” was tested, and the binding signal was 8970 fluorescence intensity (a.u.).
With “CAAGCCTCATCATCCGGTTTTCTTCCTTGGTTCCCGCACGCGGAGTCACCTAGTGCAG” the binding signal was 10900 fluorescence intensity (a.u.).
For “CCCGCTCTCTCCGATCGCTGCCACCAGCTACCGGCCATCGCGGAGTCACCTAGTGCAG”, the binding signal was 9340 fluorescence intensity (a.u.).
In the case of “CGCACTGGCCTCCACCCATCTCTCTCACCGCCTCTGCAGCCGGAGTCACCTAGTGCAG”, the binding signal was 8450 fluorescence intensity (a.u.).
“ACATCCCCGACCCGCCCCGCCTCACCGGTCATTCGCAGCCCGGAGTCACCTAGTGCAG” was tested, and the binding signal was 9440 fluorescence intensity (a.u.).
In the case of “CTGGCTATAAATTTATAGCCCGCTGCTCTTCTCTTTTACTCGGAGTCACCTAGTGCAG”, the binding signal was 8660 fluorescence intensity (a.u.).
With “CTCCTCCTCGAGACCTCGGCACCTCGCACGCCACGCTTCTCGGAGTCACCTAGTGCAG” the binding signal was 9200 fluorescence intensity (a.u.).

— publication PMC7819943, “Rice protein-binding microarrays: a tool to detect cis-acting elements near promoter regions in rice”
